No constants are given. Whether binding was seen depends on the method and setting. Binding seen in cells or lysates may run through a third protein. Some entries that bind do so weakly or less than the wild type.
Key:
[1] = molecular target: NR2A subunit of the NMDA glutamate receptor, solubilized from rat hippocampus (rat) (UniProt Q00959); assay: co-immunoprecipitation, rat hippocampal tissue (FIG. 2A, 2I)
[2] = molecular target: NR2A subunit of the NMDA glutamate receptor, solubilized from rat hippocampus (rat) (UniProt Q00959); assay: co-immunoprecipitation with anti-NR2A antibody, hippocampal primary culture treated with choline (FIG. 2I)
[3] = molecular target: NR2A subunit of the NMDA glutamate receptor, solubilized from rat hippocampus (rat) (UniProt Q00959); assay: co-immunoprecipitation, rat hippocampal tissue (FIG. 2A)
[4] = molecular target: NR2A subunit of the NMDA glutamate receptor, solubilized from rat hippocampus (rat) (UniProt Q00959); assay: co-immunoprecipitation, rat hippocampus (FIG. 7)
[5] = molecular target: NR2A subunit of the NMDA glutamate receptor, solubilized from rat hippocampus (rat) (UniProt Q00959); assay: co-immunoprecipitation, rat hippocampus after 7 days of nicotine or saline (FIG. 7)

Protein sequences, listed by entry. Tags and fused reporters are not part of them. Residues count along the entry.
UniProt Q05941, residues 23-502: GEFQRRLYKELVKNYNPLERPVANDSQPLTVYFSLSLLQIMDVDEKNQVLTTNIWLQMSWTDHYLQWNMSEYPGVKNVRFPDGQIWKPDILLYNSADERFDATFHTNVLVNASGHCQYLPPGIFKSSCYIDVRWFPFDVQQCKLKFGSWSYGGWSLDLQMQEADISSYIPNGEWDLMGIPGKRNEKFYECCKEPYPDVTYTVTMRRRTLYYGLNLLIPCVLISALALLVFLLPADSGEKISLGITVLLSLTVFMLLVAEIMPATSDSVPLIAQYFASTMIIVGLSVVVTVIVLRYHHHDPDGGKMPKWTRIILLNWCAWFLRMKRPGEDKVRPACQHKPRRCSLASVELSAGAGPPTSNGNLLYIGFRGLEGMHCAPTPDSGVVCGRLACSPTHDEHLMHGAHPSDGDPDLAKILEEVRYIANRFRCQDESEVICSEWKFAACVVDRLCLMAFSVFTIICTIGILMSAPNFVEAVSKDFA

Measured: binding

α7 nicotinic acetylcholine receptor (α7-nAchR), solubilized from rat hippocampus (from UniProt Q05941 23-502)
binds: all assays above
